Results: paper PMC6879167
No constants are given. Whether binding was seen depends on the method and setting. For part of these data: In cells and extracts the contact can be indirect. Some binding calls cover weakened binding; strength is not graded here. For part of these data: Sequences can lack the tags named with a protein.

Legend:
[1] = molecular target: T1, human IL-38 (aa 30–152) bait, N-LexA(DBD)-IL-38(aa30-152)-C fusion (human) (UniProt Q8WWZ1); experiment: two-hybrid; ULTImate Y2H screen (Hybrigenics Services); bait N-LexA(DBD)-IL-38(aa30-152)-C in pB27; prey library human reconstituted skin_RP2 at 10-fold coverage; 100.0 mM 3-AT to overcome auto-activation of the bait; only A-ranked preys listed
T1 sequence: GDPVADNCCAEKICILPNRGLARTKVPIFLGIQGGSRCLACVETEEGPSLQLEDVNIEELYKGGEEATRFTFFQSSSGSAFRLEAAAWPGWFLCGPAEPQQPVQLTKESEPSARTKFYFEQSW

[2] = molecular target: T2, human DSTN overexpressed in HEK 293T cells (pcDNA3.1/hDSTN) (human) (UniProt P60981); experiment: co-IP; HEK 293T co-transfected with pcDNA3.1/hIL-38 and pcDNA3.1/hDSTN; cellular proteins crosslinked with DSP 48 h after transfection; lysis in 20 mM Tris/HCl pH 8, 137 mM NaCl, 1% Nonidet P-40, 2 mM EDTA; IP with polyclonal anti-DSTN or anti-IL-38 antibody, normal IgG as negative control; Western blot
T2 sequence: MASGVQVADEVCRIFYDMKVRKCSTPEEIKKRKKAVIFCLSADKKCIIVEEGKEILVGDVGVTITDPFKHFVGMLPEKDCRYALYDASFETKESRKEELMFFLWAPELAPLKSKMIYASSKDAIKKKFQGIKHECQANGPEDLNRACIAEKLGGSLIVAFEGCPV

[3] = molecular target: T3, endogenous DSTN in NHK/38 cells (human (endogenous in NHK/38 cells)) (UniProt P60981); experiment: proximity ligation; NHK/38 cells with 24h Dox (1 μg/ml), fixed and permeabilized; goat anti-IL38 and rabbit anti-DSTN antibodies, DuoLink PLA probes; confocal microscopy
T3 sequence: T2 sequence

B1: destrin/actin-depolymerizing factor (DSTN), yeast two-hybrid prey fragments (domain or fragment, UniProt P60981 43-148)
chain: DKKCIIVEEGKEILVGDVGVTITDPFKHFVGMLPEKDCRYALYDASFETKESRKEELMFFLWAPELAPLKSKMIYASSKDAIKKKFQGIKHECQANGPEDLNRACI
binding [1]: binds

B2: human full-length IL-38 overexpressed in HEK 293T cells (pcDNA3.1/hIL-38) (protein, UniProt Q8WWZ1-1 1-152)
chain: MCSLPMARYYIIKYADQKALYTRDGQLLVGDPVADNCCAEKICILPNRGLARTKVPIFLGIQGGSRCLACVETEEGPSLQLEDVNIEELYKGGEEATRFTFFQSSSGSAFRLEAAAWPGWFLCGPAEPQQPVQLTKESEPSARTKFYFEQSW
binding [2]: binds

B3: human full-length IL-38 overexpressed in NHK/38 keratinocytes (pcDNA4/TO/hIL-38, Dox-inducible) (protein, UniProt Q8WWZ1-1 1-152)
chain: B2 chain
binding [3]: binds
